Record: PubChem BioAssay AID743454 (Peter MacCallum Cancer Centre, 2014)
Shown is a random part of about 18,000 deposited reagents. 450 of them (2.5%) count as active. 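Single biological run; no consistent viability z cut-off exists, so the class columns, not z-scores, define the calls.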 Entries without a mark were called inactive. Reagent sequences are not shown.

Test: 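Knock-downs lowering viability or raising caspase 3/7 activity in vorinostat-treated resistant cells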 (primary screen)
System: human HCT116-VR colon cancer cells, selected for vorinostat resistance
Reagent: siRNA pool against human genes, 40 nM siRNA pool
Time to read-out: vorinostat for 24 h, read-out about 72 h after transfection
Conditions: vorinostat at 2.5 µM final
Read-out: 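Two measures, CellTiter-Fluor viability and luminescent caspase 3/7 activity, each as fold change against same-plate mock wells, mean of duplicates, then screen-wide robust z-score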
Direction: viability robust z-score: higher = more viable cells than screen typical; caspase robust z-score: higher = more caspase 3/7 activity than screen typical
Rule for the call: 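a knock-down is a hit when classed RV1 or RV2 for lowered viability, or CA1 or CA2 for caspase activation; those lethal without drug were dropped; hits were retested singly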

Gene | viability hit class | caspase hit class | viability robust z-score | caspase robust z-score
ZFP36 | no change | no change | -0.64 | -0.5
COL6A1 | no change | no change | -0.21 | 3.62
CRTAP | no change | no change | 0.3 | -0.12
WDR83OS | no change | no change | -0.78 | 2.94
IL36B | no change | no change | 0.5 | 0.26
UTP11 | no change | no change | -2.88 | -1.58
AVL9 | no change | no change | -0.71 | 1.11
B3GALNT1 | no change | no change | 0.72 | -0.86
LNPEP | no change | no change | -0.64 | -0.31
DRD5 | no change | no change | 0.52 | -0.36
UPF3A | no change | no change | 0.32 | -0.7
TTLL7 | no change | no change | -0.56 | -0.99
RGPD5 | no change | no change | 0.02 | 0.46
OR1D2 | no change | no change | -0.26 | 0.76
C6orf163 | no change | no change | 0.5 | 2.16
RIBC2 | no change | no change | -1 | -0.7
SFRP1 | no change | no change | 0.68 | -1.51
HENMT1 | no change | no change | -0.39 | -0.87
NDUFV1-DT | no change | no change | -0.32 | 0.81
RAB10 | no change | no change | -1.44 | 0.43
TMEM43 | no change | no change | -0.64 | 0.9
TRIM51EP | no change | no change | 0.7 | -0.15
HNRNPUL1 | no change | no change | 1.09 | -0.04
TP53I13 | no change | no change | -1.58 | 4.37
REG1B | no change | no change | -0.1 | -0.08
GPR143 | no change | no change | 0.94 | -0.26
AGBL2 | no change | no change | 1.06 | -0.73
PDZRN3 | no change | no change | 0.45 | -0.56
FAM47A | no change | no change | 0.14 | -0.57
THBS3 | no change | no change | 0.48 | 2.84
CASR | no change | no change | 1 | -0.7
DCAF4 | no change | no change | -1.56 | -0.62
SBSPON | no change | no change | -0.66 | 2.04
COX6B1 | no change | no change | -1.64 | 2.77
METAP2 | no change | no change | 0.02 | -0.18
LATS2 | no change | no change | -0.17 | 0.6
SPINK2 | no change | no change | -0.39 | 0.34
SKAP1 | no change | no change | -0.84 | 0.46
THRAP3 | no change | no change | -0.01 | 0.01

Already shown: 2 of the entries above.
Gene | viability hit class | caspase hit class | viability robust z-score | caspase robust z-score
AGBL2 | no change | no change | 1.06 | -0.73
PDZRN3 | no change | no change | 0.45 | -0.56
